Molecules are shown by their SMILES.

The data set relates to RAW264.7 cells. Briefly: Gene expression (microarray and quantitative PCR) in LPS-stimulated RAW264.7 cells. To be noted: RAW264.7, LPS 1 μg ml^-1, steroid 100 nM, microarray. It counts as cell-based, mouse. As for the experimental part:
Mouse macrophage RAW264.7 cells were grown in 6-well plates to reach 80% confluence. The cells were pretreated with different steroids at 100 nM 1 h before overnight induction of inflammation by 1 μg ml^–1 LPS. Total RNA was isolated using a Qiagen mini RNA extraction kit (Valencia, CA, USA). Complementary DNA was synthesized from total RNA with an Invitrogen Superscript cDNA synthesis kit (Carlsbad, CA, USA). Target genes were quantified with a Power SYBR Green Real-Time PCR kit (Carlsbad, CA, USA) (ABI) in a StepOnePlus real-time PCR instrument (Applied Biosystems, Carlsbad, CA, USA). In every case, GAPDH (glyceraldehyde-3-phosphate dehydrogenase) was used as an internal control and data were analyzed by the ΔΔCt method. The specificity of target primers was tested both in a dissociation (melting) curve (Supplementary Figure S4) and against a water control. Primer sequence information is included in Supplementary Figure S4.
RAW264.7 cells were treated with designated steroids at 100 nM 1 h before overnight LPS stimulation of inflammation. Each treatment was duplicated. The following day, RNA samples were isolated using a Qiagen mini RNA extraction kit and applied to the Agilent Whole Mouse Genome 8x60K gene expression platform. Data were analyzed by the limma package in R program. Heat maps were generated by the HeatMap 2 package. […]

With `C[C@@H]1C[C@H]2[C@@H]3CCC4=CC(=O)C=C[C@]4(C)[C@@]3(F)[C@@H](O)C[C@]2(C)[C@@]1(O)C(=O)CO` [DEX, dexamethasone, reference compound], the “genes induced more than twofold” value is recorded as 574 and the “genes repressed more than twofold” value came to 710.

(Values after paper PMC4822341 (Cell Discovery, 2015).)
